# Not every detail of the peptide structures is certain; ends, links or a residue may be inferred. Where a SMILES comes first, the peptide text is derived from it.
# Molecular target: T1, NS2/3 protease (Hepatitis C virus genotype 1b, UniProt P26663)
# T1 construct: In a well defined assay system using purified NS2/3 (904-1206) and an optimized cleavage buffer; made in house; host or cells: E. coli BL21(DE3)pLysS
# Type: biochemical, Hepatitis C virus (HCV) genotype 1b
# Conditions: purified NS2/3 (904-1206); 50% glycerol, 0.5% n-dodecyl-β-D-maltoside
# Description: NS2/3 protease cleavage-site derived peptides were evaluated as potentially competing substrates (Table 1). NS2/3 protease cleavage-site derived peptides and NS4A-derived peptides were synthesized in-house using the standard solid-phase methodology or were made by Multiple Peptide Systems (San Diego, Calif.). Various concentrations of peptides were pre-incubated with 0.54 μM NS2/3 protease for 30 min at 23° C. in 50 mM Hepes, pH 7.0, and 50% (w/v) glycerol. The autocleavage reaction was initiated by addition of n-dodecyl-β-D-maltoside to a final concentration of 0.5%. The final DMSO content never exceeded 5% (v/v). The resulting mixture was then incubated for 3 h at 23° C. The reaction was stopped and quantified.
compound,measurement,value
"CC[C@H](C)[C@H](NC(=O)[C@@H]1CCCN1C(=O)[C@H](C)N)C(=O)N[C@H](C(=O)N[C@@H](C)C(=O)N[C@@H](Cc1ccc(O)cc1)C(=O)N[C@@H](CO)C(=O)N[C@@H](CCC(N)=O)C(=O)N[C@@H](CCC(N)=O)C(=O)N[C@H](C(=O)O)[C@@H](C)O)[C@@H](C)O [Peptide 3, APITAYSQQT] (H-APITAYSQQT-OH)",inhibitory activity on NS2/3 processing (in words),devoid of inhibitory activity
